Reference: PubChem BioAssay AID2685 (National Center for Advancing Translational Sciences (NCATS), 2010)
This is one part of the list. Further columns of the screen follow, without active or inactive calls. The list favours compounds with an active or inconclusive main result. Potencies come from curve fits of mixed quality, noted in brackets.

Assay: qHTS Assay for Lipid Storage Modulators in Drosophila S3 Cells;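 for cell number change: cells counted by Cell Tracker Red CMTPX staining in the red channel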
Details: BODIPY lipid droplet fluorescence, 18-24 h; for cell number change: measured here: cell count max response, cells fed with added oleic acid
Summary of the method: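 Laser-scanning cytometry quantifies lipid droplet accumulation (500–530 nm total intensity; droplet/cell object ratio) in oleic acid-fed (400 uM added) Drosophila S3 cells treated with a concentration series. 20 uM Triacsin C defined 100% inhibition.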

[1] = measured here: lipid fluorescence (Fed channel) AC50, cells fed with added oleic acid
[2] = measured here: cell number channel AC50, cells fed with added oleic acid

Row | Compound | cell number change | AC50 [1] | AC50 [2]
1 | O=C(CCC(=O)NC1CCN(Cc2ccccc2)CC1)NCc1ccco1 | -0.0246% | 0.82 µM [falling, full curve] | –
2 | O=C(On1c(-c2ccccc2)nc2ccccc2c1=O)c1ccco1 | -39.2% | – | 0.82 µM [falling, full curve]
3 | CC1CCN(Cc2nnnn2-c2ccc(Cl)cc2)CC1 | – | 29.1 µM [falling, single point] | –
4 | O=C1CN(O)C=C2N=c3ccccc3=C2N1c1ccc([N+](=O)[O-])cc1 | – | – | 0.731 µM [rising, single point]
5 | Cc1ccc(Cl)cc1NC1=C/C(=N\S(=O)(=O)c2cccs2)c2ccccc2C1=O | -67.4% | 0.0184 µM [falling, full curve, poor fit] | 32.6 µM [falling, partial curve, poor fit]
6 | O=C(c1ccc(NS(=O)(=O)c2ccccc2)cc1)N1CCOCC1 | -6.58% | – | –
7 | COc1cc(OC)cc(N(C(=O)CNC(=O)c2ccco2)C(C(=O)NCC2CCCO2)c2ccccc2)c1 (stereo not given) | -1.32% | 4.47 µM [falling, full curve, poor fit] | –
8 | O=S(=O)(c1ccc(SCCOc2ccc(F)cc2)nc1)N1CCCC1 | 2.89% | 2.06 µM [rising, single point] | –
9 | Clc1ccc(-c2nnc(COc3ncnc4sccc34)o2)cc1 | 31.5% | 29.1 µM [rising, single point] | 7.31 µM [rising, partial curve, poor fit]
10 | Clc1ccc(C2=CSC3=Nc4cccc5cccc(c45)N23)cc1 | – | 0.461 µM [falling, full curve] | –
11 | Cc1cccc(C(=O)OCc2cnc(Cl)s2)c1 | -35.7% | – | 32.6 µM [falling, single point]
12 | O=C(C1CCCN(Cc2ccccc2Br)C1)N1CCCCC1 (stereo not given) | 1.96% | 20.6 µM [falling, single point] | –
13 | COc1ccc(OC)c(NC(=O)N2CCCC(C)C2)c1 (stereo not given) | 5.16% | – | –
14 | O=C(Nc1nc(-c2ccccn2)cs1)C1CC1 | -15.4% | 7.31 µM [falling, partial curve] | –
15 | CCCSCCCNC(=O)Cn1cc2c(n1)CCC(C)C2 (stereo not given) | -18.8% | 29.1 µM [falling, single point] | –
16 | COCc1cc(C)nc(NCCO)c1C#N | 0.893% | 29.1 µM [rising, single point] | –
17 | O=C(CN(C1CCCCC1)S(=O)(=O)c1ccc(Cl)cc1)NCc1cccnc1 | -23.4% | – | –
18 | O=C(CCn1c(=O)c2sccc2n(CC(=O)OCc2ccccc2)c1=O)NCc1ccco1 | -33.1% | 29.1 µM [falling, single point] | 18.4 µM [falling, single point]
19 | Cc1cc(N(CCO)CCO)ccc1N=Nc1cc(F)ccc1F | -65.4% | 5.17 µM [falling, full curve] | 23.1 µM [falling, single point]
20 | CC(=O)OC1C(N2CCCCC2)c2c(ccc(/C=C/C(=O)N3CCCCC3)c2O)OC1(C)C (stereo not given) | -67.3% | 7.31 µM [falling, partial curve] | 2.91 µM [falling, full curve]

Row | Compound | cell number change | AC50 [1] | AC50 [2]
21 | COc1cc2c(cc1OC)-c1cc(NC3CCCCCCC3)nc(=O)n1CC2 | -12.7% | 0.146 µM [falling, full curve, poor fit] | –
22 | O=C(CSc1nc(O)c(-c2ccccc2)c(=O)[nH]1)N1CCOCC1 | – | – | 0.13 µM [rising, full curve, poor fit]
23 | Cn1c(SCc2nc3ccccc3[nH]2)nnc1-c1cccs1 | -29.8% | 10.3 µM [falling, partial curve] | –
24 | COc1ccccc1NC(=O)N1CCN(c2ccc3nnc(-c4ccc(F)cc4)n3n2)CC1 | -4.08% | – | 0.092 µM [rising, full curve, poor fit]
25 | COc1ccc(/C=N/OCC(=O)N(Cc2ccccc2)c2ccccc2C(=O)O)cc1 | -2.02% | 0.058 µM [falling, full curve] | –
26 | COc1ccc(Cl)cc1S(=O)(=O)N1CCN(C(=O)COc2ccccc2)CC1 | – | 0.58 µM [rising, single point] | 2.06 µM [rising, partial curve]
27 | O=[N+]([O-])c1ccc(/C=C/c2ccncc2)cc1 | 26.4% | 0.58 µM [falling, single point] | 0.291 µM [rising, full curve, poor fit]
28 | Cc1ccc(C(=O)Nc2ccccc2N2CCCC2)cc1 | 14.4% | 29.1 µM [rising, single point] | –
29 | COc1cc(SC)ccc1C(=O)Nc1nc(C)cc(C)n1 | 13.6% | – | –
30 | c1ccc(-c2cn3nc(-c4ccccc4)cnc3n2)cc1 | -13.6% | – | –
31 | c1ccc(CCn2nnnc2C(c2cccnc2)N2CCN(c3nc4ccccc4s3)CC2)cc1 (stereo not given) | -28.6% | 0.103 µM [rising, full curve] | –
32 | COc1ccc(NC(=S)Nc2ccccc2SC)c(OC)c1 | -16.4% | – | –
33 | Cc1cccc(NC(=O)CSc2nc(C3CC3)nc3ccccc23)c1 | -13.9% | 0.58 µM [rising, single point] | –
34 | CC(=O)c1sc2nc(=O)c(C)nn2c1C | 11.7% | 23.1 µM [falling, partial curve, poor fit] | –
35 | CCc1cccc(CC)c1N(COC)C(=O)Cn1c(CO)nc2ccccc21 | -2.83% | 1.46 µM [falling, partial curve] | –
36 | O=C(NCCCn1ccnc1)C(=O)NCC(c1ccco1)N1CCN(c2ccccc2)CC1 (stereo not given) | -4.1% | 0.461 µM [rising, partial curve, poor fit] | 0.461 µM [rising, full curve]
37 | COc1ccc(NC(=O)C2CCN(C(=O)Nc3ccccc3)CC2)cc1S(=O)(=O)N(C)C | -11.8% | – | 4.61 µM [falling, partial curve, poor fit]
38 | COc1ccc(-c2cc(C(F)F)n3ncc(C(=O)NCC4CCCO4)c3n2)cc1 (stereo not given) | – | 6.51 µM [rising, single point] | 6.51 µM [rising, single point]
39 | COc1ccc(Oc2nc3c(c(=O)n(C)c(=O)n3C)n2Cc2ccccc2)cc1 | 10.4% | 0.82 µM [rising, full curve, poor fit] | –

Compounds from the list above with a nitro group on carbon, in the order listed:
Row | Compound | cell number change | AC50 [1] | AC50 [2]
4 | O=C1CN(O)C=C2N=c3ccccc3=C2N1c1ccc([N+](=O)[O-])cc1 | – | – | 0.731 µM [rising, single point]
27 | O=[N+]([O-])c1ccc(/C=C/c2ccncc2)cc1 | 26.4% | 0.58 µM [falling, single point] | 0.291 µM [rising, full curve, poor fit]
